These results are taken from publication doi:10.1101/2022.11.11.516191.

No constants are given. Whether binding was seen depends on the method and setting. Some binding calls cover weakened binding; strength is not graded here.

For test [1], the target named is T1, 14-3-3 β 130nY (human), P31946.
T1 chain: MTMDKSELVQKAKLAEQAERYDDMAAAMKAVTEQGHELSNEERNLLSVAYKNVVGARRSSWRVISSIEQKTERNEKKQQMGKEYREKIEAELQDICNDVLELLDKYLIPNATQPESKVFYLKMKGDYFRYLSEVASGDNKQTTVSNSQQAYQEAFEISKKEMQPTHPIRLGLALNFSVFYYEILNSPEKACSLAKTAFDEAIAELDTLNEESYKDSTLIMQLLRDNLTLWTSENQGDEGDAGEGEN
The test can be described thus: crystal structure. Particulars: remark: other sources report otherwise.

The target of test [2] is T2, 14-3-3 β 213nY (human), P31946.
T2 chain: T1 chain
The test can be described thus: crystal structure. Conditions: remark: other sources report otherwise.

B1: 14-3-3 β 130nY, P31946 1-246 (natural protein)
chain: T1 chain
modifications: here or on the partner: 3-nitro-tyrosine at 130 (β-isoform numbering); 3-nitro-tyrosine at 130 (β-isoform numbering)
Take B1: the binding entry in test [1] is reported as “binds”.

B2: 14-3-3 β 213nY, P31946 1-246 (natural protein)
chain: T1 chain
modifications: here or on the partner: 3-nitro-tyrosine at 213 (β-isoform numbering); 3-nitro-tyrosine at 213 (β-isoform numbering)
Take B2: the binding result in test [2] was “binds”.
